Data as given in PubChem BioAssay AID1259308 (NCATS, 2017)

- Assay: 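Genes whose loss raises luciferase production in HEK293 cells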 (primary screen)
- System: human HEK293 embryonic kidney cells stably expressing firefly luciferase (HEK-CMV-Luc2-Hygro)
- Reagents: single siRNA against human genes, 0.8 pmol siRNA per well
- Duration: 72 h
- Measurement: 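Reporter luminescence and viable-cell signal on separate replicate plates, given as percent of non-targeting control and median/MAD z-scores, plus per-cell luciferase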
- Reading the numbers: total luciferase, z-score and total luciferase, % of control: higher = more reporter protein produced; luciferase per cell, z-score: higher = more reporter output per viable cell; viable cells, % of control: higher = more viable cells
- Hit rule: 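An siRNA counts as active if its total luciferase robust z-score exceeds 3; genes with two or more such siRNAs out of three were retested with fresh siRNAs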
- Meaning of the calls: active = raised luciferase; inactive = no rise
The deposit covers about 59,000 reagents; shown is a random part of them. Of all reagents, about 1,510 (2.6%) were called active. 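Calls use total luciferase alone and ignore viability, so some active siRNAs may act by altering cell number.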 A number with no mark means an inactive call. The numbers tell different reagents against one gene apart.

| gene | reagent | total luciferase, z-score | total luciferase, % of control | luciferase per cell, z-score | viable cells, % of control |
| --- | --- | --- | --- | --- | --- |
| FAM157A | 1 | 0.974 | 101 | 1.18 | 83 |
| FAM157A | 2 | -1.38 | 54.4 | 0.133 | 58.7 |
| FAM157A | 3 | 0.357 | 89 | 0.773 | 81.1 |
| EPS8L3 | 1 | 0.443 | 90.7 | -0.31 | 110 |
| EPS8L3 | 2 | -0.134 | 79.2 | -0.064 | 90 |
| EPS8L3 | 3 | -0.153 | 78.8 | 0.73 | 72.7 |
| LINC00703 | 1 | -0.87 | 64.6 | -0.338 | 78.9 |
| LINC00703 | 2 | -0.283 | 76.3 | -0.219 | 90.3 |
| LINC00703 | 3 | -1.21 | 57.7 | -1.12 | 86.7 |
| IFT56 | 1 | 0.913 | 100 | 0.292 | 104 |
| IFT56 | 2 | 0.848 | 98.8 | -0.202 | 116 |
| IFT56 | 3 | -0.484 | 72.3 | -0.612 | 94.9 |
| KLHL18 | 1 | -0.615 | 69.7 | -0.299 | 84.2 |
| KLHL18 | 2 | -1.87 | 44.8 | -1.77 | 79.6 |
| KLHL18 | 3 | 0.684 | 95.5 | 0.833 | 85.7 |
| CRACDL | 1 | 2.44 | 130 | 3.24 | 62 |
| CRACDL | 2 | 0.00141 | 81.9 | 0.149 | 88 |
| CRACDL | 3 | -1.13 | 59.4 | -1.76 | 106 |
| H3C2 | 1 | 0.261 | 87.1 | 0.22 | 91.8 |
| H3C2 | 2 | 1.57 | 113 | 1.28 | 90.3 |
| H3C2 | 3 | 3.31 (active) | 148 | 2.06 | 96.1 |
| CSN2 | 1 | 2.16 | 125 | 2.45 | 73.2 |
| CSN2 | 2 | -1.5 | 52 | -0.954 | 74.6 |
| CSN2 | 3 | 0.0342 | 82.6 | 0.151 | 88.7 |
| OR2V2 | 1 | -0.478 | 72.4 | -0.895 | 102 |
| OR2V2 | 2 | 1.5 | 112 | 1.68 | 80.3 |
| OR2V2 | 3 | -3.14 | 19.4 | -2.29 | 39.6 |
| PPARGC1A | 1 | 0.36 | 89.1 | 0.202 | 94.4 |
| PPARGC1A | 2 | 0.19 | 85.7 | -0.182 | 100 |
| PPARGC1A | 3 | -0.502 | 71.9 | -0.666 | 95.8 |
| KAT2B | 1 | 0.423 | 90.3 | -0.0369 | 102 |
| KAT2B | 2 | 0.156 | 85 | -0.508 | 109 |
| KAT2B | 3 | 1.05 | 103 | 0.501 | 101 |
| OR1L1 | 1 | 3.83 (active) | 158 | 2.59 | 89.3 |
| OR1L1 | 2 | -0.299 | 75.9 | -0.509 | 97 |
| OR1L1 | 3 | -0.754 | 66.9 | -1.12 | 100 |
| BPIFB2 | 1 | 0.462 | 91.1 | 0.666 | 85.4 |
| BPIFB2 | 2 | 1.49 | 112 | 1.71 | 79.4 |
| BPIFB2 | 3 | -1.19 | 58.2 | -0.912 | 82.7 |
